The target of assay [1] is T1, GFP-tagged Dm Roquin ΔCBM (Drosophila melanogaster) (UniProt Q9VV48).
T1 sequence: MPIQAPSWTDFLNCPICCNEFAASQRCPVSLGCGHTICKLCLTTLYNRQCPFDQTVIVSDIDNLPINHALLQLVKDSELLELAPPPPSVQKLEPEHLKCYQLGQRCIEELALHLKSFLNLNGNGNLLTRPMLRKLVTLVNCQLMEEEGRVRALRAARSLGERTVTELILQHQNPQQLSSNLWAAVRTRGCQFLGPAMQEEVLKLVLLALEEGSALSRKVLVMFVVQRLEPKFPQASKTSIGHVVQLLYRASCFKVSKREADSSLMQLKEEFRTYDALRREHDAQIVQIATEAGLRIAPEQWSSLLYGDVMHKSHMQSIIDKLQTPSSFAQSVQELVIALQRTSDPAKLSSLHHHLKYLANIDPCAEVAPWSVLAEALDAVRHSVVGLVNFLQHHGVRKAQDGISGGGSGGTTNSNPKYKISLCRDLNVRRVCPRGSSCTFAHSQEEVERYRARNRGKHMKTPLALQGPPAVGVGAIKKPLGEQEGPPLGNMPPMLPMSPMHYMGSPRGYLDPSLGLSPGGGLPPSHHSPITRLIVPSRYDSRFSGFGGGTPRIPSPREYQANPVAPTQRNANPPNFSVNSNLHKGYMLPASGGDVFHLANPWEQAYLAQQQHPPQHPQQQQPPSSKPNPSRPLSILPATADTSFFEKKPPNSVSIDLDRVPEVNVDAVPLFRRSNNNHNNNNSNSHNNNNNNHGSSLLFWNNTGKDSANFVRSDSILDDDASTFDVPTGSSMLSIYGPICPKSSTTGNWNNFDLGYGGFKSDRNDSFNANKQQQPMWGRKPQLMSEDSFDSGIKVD
As to the kind of experiment: co-IP; GFP-tagged Dm Roquin and HA-tagged deadenylase or decapping factors co-expressed in Dm S2 cells; lysates treated with RNase A; anti-GFP and anti-HA blots.

Protein sequences, listed by entry. Tags and fused reporters are not part of them. Lines headed by an entry give the natural chain unless they say otherwise; changes in a name come on top.
UniProt Q7JVP2: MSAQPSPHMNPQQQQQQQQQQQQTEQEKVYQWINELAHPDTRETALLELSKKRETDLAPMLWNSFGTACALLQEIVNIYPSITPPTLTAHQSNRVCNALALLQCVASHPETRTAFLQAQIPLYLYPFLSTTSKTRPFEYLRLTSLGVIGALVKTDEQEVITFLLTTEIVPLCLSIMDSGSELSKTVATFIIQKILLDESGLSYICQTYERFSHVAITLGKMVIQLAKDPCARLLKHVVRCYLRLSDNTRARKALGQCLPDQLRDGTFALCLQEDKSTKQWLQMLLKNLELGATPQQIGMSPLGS

Assay [2] concerns the target T2, GFP-tagged Dm Roquin (full-length, wild-type) (Drosophila melanogaster) (UniProt Q9VV48).
T2 sequence: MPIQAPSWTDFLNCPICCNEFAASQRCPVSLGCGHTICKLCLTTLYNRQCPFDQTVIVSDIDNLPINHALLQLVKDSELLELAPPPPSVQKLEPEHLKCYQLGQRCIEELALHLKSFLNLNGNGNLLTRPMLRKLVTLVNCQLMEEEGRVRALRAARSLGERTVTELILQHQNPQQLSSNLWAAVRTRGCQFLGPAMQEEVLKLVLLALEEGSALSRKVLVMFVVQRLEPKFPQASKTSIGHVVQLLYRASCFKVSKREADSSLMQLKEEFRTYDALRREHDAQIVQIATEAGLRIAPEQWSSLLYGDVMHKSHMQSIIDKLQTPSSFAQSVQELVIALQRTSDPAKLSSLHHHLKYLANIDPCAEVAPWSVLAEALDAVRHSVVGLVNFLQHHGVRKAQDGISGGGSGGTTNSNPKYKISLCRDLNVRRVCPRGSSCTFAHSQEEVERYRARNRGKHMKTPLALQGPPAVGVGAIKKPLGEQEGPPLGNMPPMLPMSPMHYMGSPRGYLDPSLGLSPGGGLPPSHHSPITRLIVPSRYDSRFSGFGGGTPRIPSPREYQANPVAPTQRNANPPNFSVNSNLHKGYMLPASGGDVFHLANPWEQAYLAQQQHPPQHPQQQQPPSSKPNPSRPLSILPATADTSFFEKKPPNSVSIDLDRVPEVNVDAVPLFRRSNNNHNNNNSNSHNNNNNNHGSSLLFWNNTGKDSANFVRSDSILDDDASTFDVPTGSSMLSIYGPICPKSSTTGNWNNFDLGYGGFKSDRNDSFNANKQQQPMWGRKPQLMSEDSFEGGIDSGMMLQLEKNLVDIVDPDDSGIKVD
The assay is described as above.

The target in assay [3] is T3, GFP-tagged Dm Roquin ΔNBM (Drosophila melanogaster) (UniProt Q9VV48).
T3 sequence: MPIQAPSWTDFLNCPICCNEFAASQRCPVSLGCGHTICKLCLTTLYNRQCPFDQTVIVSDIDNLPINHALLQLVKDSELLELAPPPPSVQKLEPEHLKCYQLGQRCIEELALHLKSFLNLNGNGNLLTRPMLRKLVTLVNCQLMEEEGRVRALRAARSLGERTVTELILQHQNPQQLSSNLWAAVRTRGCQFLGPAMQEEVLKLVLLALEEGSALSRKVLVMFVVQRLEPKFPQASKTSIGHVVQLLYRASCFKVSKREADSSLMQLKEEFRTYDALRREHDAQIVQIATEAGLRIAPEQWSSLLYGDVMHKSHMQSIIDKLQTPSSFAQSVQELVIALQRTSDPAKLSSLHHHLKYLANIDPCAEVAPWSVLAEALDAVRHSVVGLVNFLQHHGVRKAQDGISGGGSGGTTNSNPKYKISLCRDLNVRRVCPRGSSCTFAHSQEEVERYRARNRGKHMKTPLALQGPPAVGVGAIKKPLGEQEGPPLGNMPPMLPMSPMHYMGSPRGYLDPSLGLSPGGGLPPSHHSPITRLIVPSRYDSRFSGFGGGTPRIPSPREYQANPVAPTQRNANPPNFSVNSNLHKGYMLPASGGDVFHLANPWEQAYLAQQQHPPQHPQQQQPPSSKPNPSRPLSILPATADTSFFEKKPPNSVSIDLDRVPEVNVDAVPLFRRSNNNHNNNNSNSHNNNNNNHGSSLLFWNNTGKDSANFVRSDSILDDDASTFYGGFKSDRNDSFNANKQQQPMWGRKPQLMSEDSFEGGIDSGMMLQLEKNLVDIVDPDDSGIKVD
The description is as above.

Assay [4] concerns the target T2, GFP-tagged Dm Roquin (full-length, wild-type) (Drosophila melanogaster). As to the kind of experiment: co-IP; GFP-tagged Dm Roquin and HA-tagged CAF40 co-expressed in Dm S2 cells in the presence of HA-tagged CN9BD; lysates treated with RNase A (Fig. 5).

The source of these data is PMC5303829, “A CAF40-binding motif facilitates recruitment of the CCR4-NOT complex to mRNAs targeted by Drosophila Roquin” (Nature Communications, 2017).

These are yes or no findings as the source states them, for the method shown. In cells and extracts the contact can be indirect. For some assays here: Binding can be weak; no strength is given. Tags and fused reporters may be left off the sequences shown.

As for HA-tagged NOT3 (S2 cells), the binding entry in assay [1], in assay [2] and in assay [3] was “binds” in each case.

As to “HA-tagged Dm CAF40 mutant corresponding to Hs CAF40 V181E (from UniProt Q7JVP2)”, the binding result in assay [4] is listed as “no binding”.

For the substance HA-tagged HPat (S2 cells), the binding result in assay [2] is listed as “binds”.

As for “HA-tagged Dm CAF40 mutant corresponding to Hs CAF40 Y134D, G141W (from UniProt Q7JVP2)”, in assay [4], the binding entry is listed as “no binding”.

On to HA-tagged CAF1 (S2 cells), for which the binding entry in assay [2] is “binds”.

Regarding HA-tagged NOT10 (S2 cells), in assay [2], the binding result is listed as “binds”.
